Test results from PubChem BioAssay AID328 (DTP/NCI, 2004).
The list is a part of this screen's results and no random one: it is rich in T/C values a quarter to a half above the control, in often repeated tests (any T/C) and in doses without a T/C. Other doses and runs of a compound stand elsewhere. T/C is the treated group as % of the vehicle group. Some entries give survivors of the animals treated and no T/C: the source holds a T/C of zero for them, seemingly a mark for toxic or unscored doses. Some doses without a T/C left all or most animals alive at the check, yet need not have been tolerated: the source hardly ever lists a survival T/C far under the control, and the zero likely stands for such cases as well. Survivors were counted at the toxicity check, usually on the fifth day, unless a day is given; later deaths do not show. Schedule codes are those of the source, taken here to give the interval after Q, in days (D) or hours (H), and the number of doses after X. For survival time, the PubChem record calls one and a half times the control and up active, and a quarter to a half above the control has no call in these data; cut-offs in other NCI protocols can differ. Some entries hold several experiments; the results are listed from low to high. Some T/C values are followed by the survivors on the day toxicity was checked, most often the fifth; where none is given, no animal had died by that day.

Tested on: BDF1 mice, P388 leukemia ip, median survival T/C
Experiment: NCI In Vivo Anticancer Drug Screen. Data for tumor model P388 Leukemia (intraperitoneal) in B6D2F1 (BDF1) mice
Conditions: T/C endpoint: median survival time, higher T/C = longer survival
How it was run: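 Vehicle-dosed animals serve as the reference; survival of compound-dosed, tumour-implanted mice is divided by it.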

[1] = dose: 400.0 mg/kg/injection, schedule: Q01DX009 (ip), vehicle: saline with Tween-80
[2] = dose: 200.0 mg/kg/injection, schedule: Q01DX009 (ip), vehicle: saline with Tween-80
[3] = dose: 100.0 mg/kg/injection, schedule: Q01DX009 (ip), vehicle: Klucel (hydroxypropylcellulose) (HPC)
[4] = dose: 150.0 mg/kg/injection, schedule: Q01DX009 (ip), vehicle: Klucel (hydroxypropylcellulose) (HPC)
[5] = dose: 100.0 mg/kg/injection, schedule: Q01DX009 (ip), vehicle: saline with Tween-80

## CCC(CO)NC(=O)/C=C/c1ccc(Cl)cc1 (stereo not drawn)
[1]
  survivor count: 4 of 6

## O=C1c2ccccc2C(=O)c2c(NCCNCCNCCO)ccc(NCCNCCNCCO)c21
dose: 200.0 mg/kg/injection, schedule: Q01DX009 (ip), vehicle: water
  survivor count: 0 of 6

## CCCCCCCCCCCCCCCCSCCCCCCCCCCCSCCCCCCCCCCCCCCCC
dose: 100.0 mg/kg/injection, schedule: Q01DX001 (ip), vehicle: saline sonified
  survivor count: 6 of 6

## C=CCOC(=O)c1ccccc1N
[1]
  survivor count: 0 of 1

## CC(C)(C)COC(=O)CCN1CC1
dose: 40.0 mg/kg/injection, schedule: Q01DX009 (ip), vehicle: Klucel (hydroxypropylcellulose) (HPC)
  survivor count: 4 of 6
dose: 80.0 mg/kg/injection, schedule: Q01DX009 (ip), vehicle: Klucel (hydroxypropylcellulose) (HPC)
  survivor count: 3 of 6

## CNC(=S)N/N=C\C(=N/NC(=S)NC)c1ccco1
dose: 60.0 mg/kg/injection, schedule: Q01DX009 (ip), vehicle: saline with Tween-80
  survivor count: 6 of 6

## N#Cc1cnc(=S)n(-c2cc(C(F)(F)F)cc(C(F)(F)F)c2)c1N
[2]
  survivor count: 0 of 6

## C[C@]12CC[C@@H]3c4ccc(O)cc4CC[C@H]3[C@@H]1CC[C@@H]2O
dose: 200.0 mg/kg/injection, schedule: Q01DX009 (ip), vehicle: Klucel (hydroxypropylcellulose) (HPC)
  survivor count: 6 of 6

## CN(Cc1cnc2nc(N)nc(N)c2n1)c1c(Cl)cc(C(=O)NC(CCC(=O)O)C(=O)O)cc1Br (stereo not drawn)
dose: 0.7 mg/kg/injection, schedule: Q04DX003 (ip), vehicle: saline
  T/C: 131 % of control
dose: 1.8 mg/kg/injection, schedule: Q04DX003 (ip), vehicle: saline
  T/C: 145 % of control
dose: 2.7 mg/kg/injection, schedule: Q04DX003 (ip), vehicle: saline
  T/C: 140 % of control
dose: 4.2 mg/kg/injection, schedule: Q04DX003 (ip), vehicle: saline
  T/C: 131 % of control
dose: 9.6 mg/kg/injection, schedule: Q04DX003 (ip), vehicle: saline
  T/C: 127 % of control
dose: 14.0 mg/kg/injection, schedule: Q04DX003 (ip), vehicle: saline
  T/C: 136 % of control
dose: 22.0 mg/kg/injection, schedule: Q04DX003 (ip), vehicle: saline
  T/C: 136 % of control
dose: 35.0 mg/kg/injection, schedule: Q04DX003 (ip), vehicle: saline
  T/C: 145 % of control [5 of 6 alive]
[1]
  survivor count: 6 of 6

## O=C(Nc1nncs1)c1ccncc1
dose: 100.0 mg/kg/injection, schedule: Q04DX002 (ip), vehicle: saline with Tween-80
  T/C: 136 % of control
dose: 600.0 mg/kg/injection, schedule: Q04DX002 (ip), vehicle: saline with Tween-80
  survivor count: 6 of 6

## COc1ccc(C)cc1NN
dose: 25.0 mg/kg/injection, schedule: Q01DX009 (ip), vehicle: saline
  survivor count: 6 of 6
dose: 100.0 mg/kg/injection, schedule: Q01DX009 (ip), vehicle: saline
  survivor count: 0 of 6
dose: 200.0 mg/kg/injection, schedule: Q01DX009 (ip), vehicle: saline
  survivor count: 0 of 6

## C[n+]1c(/C=C/c2ccc(O)c3ncccc23)[se]c2ccccc21
dose: 12.0 mg/kg/injection, schedule: Q01DX010 (ip), vehicle: acetone
  survivor count: 6 of 6
dose: 12.5 mg/kg/injection, schedule: Q01DX010 (ip), vehicle: saline
  T/C: 127 % of control
dose: 50.0 mg/kg/injection, schedule: Q01DX010 (ip), vehicle: saline
  T/C: 140 % of control
dose: 100.0 mg/kg/injection, schedule: Q01DX010 (ip), vehicle: saline
  T/C: 127 % of control

## O=C1NC(=O)C(Cc2ccccc2)(c2ccccc2)N1 (stereo not drawn)
dose: 300.0 mg/kg/injection, schedule: Q01DX009 (ip), vehicle: saline with Tween-80
  survivor count: 1 of 6

## CC1(C)N=C(N)N=C(N)N1c1ccc(C(N)=O)cc1
dose: 200.0 mg/kg/injection, schedule: Q01DX005 (ip), vehicle: Klucel (hydroxypropylcellulose) (HPC)
  T/C: 127 % of control [5 of 6 alive]

## [Ni+2].[SH2+]C([SH2+])=Nc1ccccc1.[SH2+]C([SH2+])=Nc1ccccc1.c1ccc(C[P+](c2ccccc2)(c2ccccc2)c2ccccc2)cc1
dose: 2.5 mg/kg/injection, schedule: Q01DX009 (ip), vehicle: saline
  survivor count: 6 of 6
dose: 6.0 mg/kg/injection, schedule: Q01DX009 (ip), vehicle: saline
  T/C: 135 % of control
dose: 30.0 mg/kg/injection, schedule: Q01DX009 (ip), vehicle: Klucel (hydroxypropylcellulose) (HPC)
  survivor count: 2 of 6
dose: 60.0 mg/kg/injection, schedule: Q01DX009 (ip), vehicle: Klucel (hydroxypropylcellulose) (HPC)
  survivor count: 4 of 6

## O=C(O)/C=N/NS(=O)(=O)/C=C/c1ccccc1
dose: 12.5 mg/kg/injection, schedule: Q01DX009 (ip), vehicle: other
  T/C: 129 % of control
dose: 25.0 mg/kg/injection, schedule: Q01DX009 (ip), vehicle: other
  T/C: 140 % of control
dose: 200.0 mg/kg/injection, schedule: Q01DX009 (ip), vehicle: other
  survivor count: 5 of 6
dose: 400.0 mg/kg/injection, schedule: Q01DX009 (ip), vehicle: other
  survivor count: 0 of 6

## CC1(O)CCC2C3CCC4=CC(=O)CCC4C3CCC21C (stereo not drawn)
dose: 50.0 mg/kg/injection, schedule: Q01DX009 (ip), vehicle: Klucel (hydroxypropylcellulose) (HPC)
  survivor count: 6 of 6
dose: 66.0 mg/kg/injection, schedule: Q01DX009 (ip), vehicle: Klucel (hydroxypropylcellulose) (HPC)
  survivor count: 6 of 6
[3]
  T/C: 95, 104, 110, 127 % of control
  survivor count: 6 of 6
[4]
  T/C: 100, 107, 110 % of control
  survivor count: 5 of 6
dose: 400.0 mg/kg/injection, schedule: Q04DX003 (ip), vehicle: other
  survivor count: 0 of 6

## NNCc1c(C(=O)O)oc2ccccc12
[2]
  survivor count: 4 of 6

## COc1cc(C=Nc2cc(Cl)cc(Cl)c2)ccc1N(CCCl)CCCl
dose: 50.0 mg/kg/injection, schedule: Q01DX009 (ip), vehicle: saline with Tween-80
  survivor count: 6 of 6
[5]
  survivor count: 6 of 6
[2]
  survivor count: 4 of 6

## CCC(C(O)c1cccs1)C(O)(C(F)(F)F)C(F)(F)F (stereo not drawn)
dose: 400.0 mg/kg/injection, schedule: Q04DX003 (ip), vehicle: saline with Tween-80
  T/C: 130 % of control

## CN1CC2([N+](=O)[O-])C=CCC([N+](=O)[O-])(C1)C2 (stereo not drawn)
dose: 400.0 mg/kg/injection, schedule: Q01DX009 (ip), vehicle: water
  survivor count: 5 of 6

## CCOC(=O)C(C#N)C(C(C)=O)C(=O)OCC (stereo not drawn)
[5]
  survivor count: 6 of 6

## N[C@H](C(=O)O)[C@@H]1CC(Cl)=NO1
dose: 6.25 mg/kg/injection, schedule: Q04DX003 (ip), vehicle: saline
  T/C: 127 % of control
dose: 12.5 mg/kg/injection, schedule: Q01DX009 (ip), vehicle: saline
  survivor count: 8 of 8
dose: 32.4 mg/kg/injection, schedule: Q04DX003 (ip), vehicle: saline
  T/C: 128 % of control
dose: 36.0 mg/kg/injection, schedule: Q04DX003 (ip), vehicle: saline
  T/C: 131 % of control
dose: 54.0 mg/kg/injection, schedule: Q04DX003 (ip), vehicle: saline
  T/C: 134 % of control
dose: 60.0 mg/kg/injection, schedule: Q04DX003 (ip), vehicle: saline
  T/C: 139 % of control
dose: 90.0 mg/kg/injection, schedule: Q04DX003 (ip), vehicle: saline
  T/C: 145 % of control
dose: 100.0 mg/kg/injection, schedule: Q04DX003 (ip), vehicle: saline
  T/C: 149 % of control
dose: 100.0 mg/kg/injection, schedule: Q04DX003 (ip), vehicle: water
  T/C: 147 % of control
dose: 150.0 mg/kg/injection, schedule: Q04DX003 (ip), vehicle: saline
  T/C: 148 % of control

## C=C(Br)COCC
dose: 80.0 mg/kg/injection, schedule: Q01DX009 (ip), vehicle: saline
  survivor count: 2 of 6
dose: 185.0 mg/kg/injection, schedule: Q01DX001 (ip), vehicle: saline
  survivor count: 1 of 6
